This is one part of the list.

The chains behind the UniProt entries cited, without tags or fusion partners. Where a name states a change or a piece, a line headed by the entry shows the natural chain unless it says otherwise.
UniProt O15439: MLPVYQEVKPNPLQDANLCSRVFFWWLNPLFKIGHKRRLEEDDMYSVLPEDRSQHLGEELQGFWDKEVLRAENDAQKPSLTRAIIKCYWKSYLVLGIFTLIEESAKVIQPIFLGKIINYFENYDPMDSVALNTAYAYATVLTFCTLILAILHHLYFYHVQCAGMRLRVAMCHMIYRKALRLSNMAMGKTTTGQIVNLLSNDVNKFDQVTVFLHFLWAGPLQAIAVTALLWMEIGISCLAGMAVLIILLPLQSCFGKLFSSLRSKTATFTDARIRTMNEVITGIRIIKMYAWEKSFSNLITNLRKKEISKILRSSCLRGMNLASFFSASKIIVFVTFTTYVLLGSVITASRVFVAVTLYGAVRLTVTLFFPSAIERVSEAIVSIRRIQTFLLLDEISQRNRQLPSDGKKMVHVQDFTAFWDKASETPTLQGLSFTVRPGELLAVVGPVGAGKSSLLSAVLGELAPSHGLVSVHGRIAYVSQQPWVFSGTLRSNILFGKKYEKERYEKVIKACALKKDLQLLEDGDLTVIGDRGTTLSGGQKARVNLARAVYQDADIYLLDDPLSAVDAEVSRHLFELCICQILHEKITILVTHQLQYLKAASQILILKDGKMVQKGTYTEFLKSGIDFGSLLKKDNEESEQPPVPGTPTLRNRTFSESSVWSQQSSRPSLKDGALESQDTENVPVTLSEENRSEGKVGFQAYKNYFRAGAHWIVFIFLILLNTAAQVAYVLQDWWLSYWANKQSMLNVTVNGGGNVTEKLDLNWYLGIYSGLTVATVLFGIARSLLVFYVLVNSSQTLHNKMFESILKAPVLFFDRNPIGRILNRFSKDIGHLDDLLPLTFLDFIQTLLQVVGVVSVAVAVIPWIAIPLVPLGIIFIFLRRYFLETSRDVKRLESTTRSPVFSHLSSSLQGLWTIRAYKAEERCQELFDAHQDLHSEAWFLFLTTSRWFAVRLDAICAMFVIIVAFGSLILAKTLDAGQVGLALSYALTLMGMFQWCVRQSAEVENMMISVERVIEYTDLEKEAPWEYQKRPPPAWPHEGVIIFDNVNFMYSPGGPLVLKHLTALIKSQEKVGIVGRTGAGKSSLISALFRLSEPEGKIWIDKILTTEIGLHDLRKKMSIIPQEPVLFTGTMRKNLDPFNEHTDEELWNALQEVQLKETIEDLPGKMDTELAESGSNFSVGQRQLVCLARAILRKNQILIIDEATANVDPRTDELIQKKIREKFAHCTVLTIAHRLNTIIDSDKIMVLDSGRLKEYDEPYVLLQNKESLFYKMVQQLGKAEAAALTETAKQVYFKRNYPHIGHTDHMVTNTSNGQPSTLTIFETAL
UniProt Q9H3P7: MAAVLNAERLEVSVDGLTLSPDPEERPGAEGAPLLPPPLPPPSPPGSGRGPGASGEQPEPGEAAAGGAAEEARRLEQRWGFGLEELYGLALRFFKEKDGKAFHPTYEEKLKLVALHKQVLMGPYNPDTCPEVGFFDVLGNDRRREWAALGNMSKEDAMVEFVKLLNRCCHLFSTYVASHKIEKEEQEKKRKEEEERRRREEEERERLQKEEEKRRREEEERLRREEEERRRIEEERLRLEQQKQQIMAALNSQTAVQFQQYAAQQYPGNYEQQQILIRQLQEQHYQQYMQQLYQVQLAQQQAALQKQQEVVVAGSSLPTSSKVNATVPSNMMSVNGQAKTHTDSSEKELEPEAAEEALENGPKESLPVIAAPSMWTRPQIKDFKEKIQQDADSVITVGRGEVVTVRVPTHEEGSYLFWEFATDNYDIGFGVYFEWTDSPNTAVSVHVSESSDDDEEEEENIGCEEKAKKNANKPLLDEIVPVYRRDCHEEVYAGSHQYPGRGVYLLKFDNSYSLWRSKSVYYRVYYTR
UniProt Q9H7C9: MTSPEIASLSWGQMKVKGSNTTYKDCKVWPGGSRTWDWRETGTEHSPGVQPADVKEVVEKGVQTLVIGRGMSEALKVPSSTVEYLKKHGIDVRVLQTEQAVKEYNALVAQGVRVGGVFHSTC
UniProt Q9NPJ3: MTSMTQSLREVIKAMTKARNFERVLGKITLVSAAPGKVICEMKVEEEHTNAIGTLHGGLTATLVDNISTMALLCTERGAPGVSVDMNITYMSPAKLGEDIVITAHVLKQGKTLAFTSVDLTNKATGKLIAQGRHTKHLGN
UniProt Q9H845: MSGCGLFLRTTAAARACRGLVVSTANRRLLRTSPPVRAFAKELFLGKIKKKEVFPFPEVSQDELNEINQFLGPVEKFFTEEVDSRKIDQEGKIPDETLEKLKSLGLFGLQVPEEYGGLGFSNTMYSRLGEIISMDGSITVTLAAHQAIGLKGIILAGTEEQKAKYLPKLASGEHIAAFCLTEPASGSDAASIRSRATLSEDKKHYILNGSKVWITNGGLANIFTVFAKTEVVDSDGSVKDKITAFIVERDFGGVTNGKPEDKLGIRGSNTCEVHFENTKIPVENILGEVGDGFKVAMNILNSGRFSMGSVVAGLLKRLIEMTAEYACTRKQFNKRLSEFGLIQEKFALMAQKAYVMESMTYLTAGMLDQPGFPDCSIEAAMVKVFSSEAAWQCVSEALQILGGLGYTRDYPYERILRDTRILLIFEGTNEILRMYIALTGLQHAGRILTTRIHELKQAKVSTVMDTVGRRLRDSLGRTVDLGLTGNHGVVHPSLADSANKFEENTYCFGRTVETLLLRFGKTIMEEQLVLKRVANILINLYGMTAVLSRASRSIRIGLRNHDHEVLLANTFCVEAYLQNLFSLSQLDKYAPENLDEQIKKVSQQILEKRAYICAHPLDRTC
UniProt O00763, whole entry, looked up: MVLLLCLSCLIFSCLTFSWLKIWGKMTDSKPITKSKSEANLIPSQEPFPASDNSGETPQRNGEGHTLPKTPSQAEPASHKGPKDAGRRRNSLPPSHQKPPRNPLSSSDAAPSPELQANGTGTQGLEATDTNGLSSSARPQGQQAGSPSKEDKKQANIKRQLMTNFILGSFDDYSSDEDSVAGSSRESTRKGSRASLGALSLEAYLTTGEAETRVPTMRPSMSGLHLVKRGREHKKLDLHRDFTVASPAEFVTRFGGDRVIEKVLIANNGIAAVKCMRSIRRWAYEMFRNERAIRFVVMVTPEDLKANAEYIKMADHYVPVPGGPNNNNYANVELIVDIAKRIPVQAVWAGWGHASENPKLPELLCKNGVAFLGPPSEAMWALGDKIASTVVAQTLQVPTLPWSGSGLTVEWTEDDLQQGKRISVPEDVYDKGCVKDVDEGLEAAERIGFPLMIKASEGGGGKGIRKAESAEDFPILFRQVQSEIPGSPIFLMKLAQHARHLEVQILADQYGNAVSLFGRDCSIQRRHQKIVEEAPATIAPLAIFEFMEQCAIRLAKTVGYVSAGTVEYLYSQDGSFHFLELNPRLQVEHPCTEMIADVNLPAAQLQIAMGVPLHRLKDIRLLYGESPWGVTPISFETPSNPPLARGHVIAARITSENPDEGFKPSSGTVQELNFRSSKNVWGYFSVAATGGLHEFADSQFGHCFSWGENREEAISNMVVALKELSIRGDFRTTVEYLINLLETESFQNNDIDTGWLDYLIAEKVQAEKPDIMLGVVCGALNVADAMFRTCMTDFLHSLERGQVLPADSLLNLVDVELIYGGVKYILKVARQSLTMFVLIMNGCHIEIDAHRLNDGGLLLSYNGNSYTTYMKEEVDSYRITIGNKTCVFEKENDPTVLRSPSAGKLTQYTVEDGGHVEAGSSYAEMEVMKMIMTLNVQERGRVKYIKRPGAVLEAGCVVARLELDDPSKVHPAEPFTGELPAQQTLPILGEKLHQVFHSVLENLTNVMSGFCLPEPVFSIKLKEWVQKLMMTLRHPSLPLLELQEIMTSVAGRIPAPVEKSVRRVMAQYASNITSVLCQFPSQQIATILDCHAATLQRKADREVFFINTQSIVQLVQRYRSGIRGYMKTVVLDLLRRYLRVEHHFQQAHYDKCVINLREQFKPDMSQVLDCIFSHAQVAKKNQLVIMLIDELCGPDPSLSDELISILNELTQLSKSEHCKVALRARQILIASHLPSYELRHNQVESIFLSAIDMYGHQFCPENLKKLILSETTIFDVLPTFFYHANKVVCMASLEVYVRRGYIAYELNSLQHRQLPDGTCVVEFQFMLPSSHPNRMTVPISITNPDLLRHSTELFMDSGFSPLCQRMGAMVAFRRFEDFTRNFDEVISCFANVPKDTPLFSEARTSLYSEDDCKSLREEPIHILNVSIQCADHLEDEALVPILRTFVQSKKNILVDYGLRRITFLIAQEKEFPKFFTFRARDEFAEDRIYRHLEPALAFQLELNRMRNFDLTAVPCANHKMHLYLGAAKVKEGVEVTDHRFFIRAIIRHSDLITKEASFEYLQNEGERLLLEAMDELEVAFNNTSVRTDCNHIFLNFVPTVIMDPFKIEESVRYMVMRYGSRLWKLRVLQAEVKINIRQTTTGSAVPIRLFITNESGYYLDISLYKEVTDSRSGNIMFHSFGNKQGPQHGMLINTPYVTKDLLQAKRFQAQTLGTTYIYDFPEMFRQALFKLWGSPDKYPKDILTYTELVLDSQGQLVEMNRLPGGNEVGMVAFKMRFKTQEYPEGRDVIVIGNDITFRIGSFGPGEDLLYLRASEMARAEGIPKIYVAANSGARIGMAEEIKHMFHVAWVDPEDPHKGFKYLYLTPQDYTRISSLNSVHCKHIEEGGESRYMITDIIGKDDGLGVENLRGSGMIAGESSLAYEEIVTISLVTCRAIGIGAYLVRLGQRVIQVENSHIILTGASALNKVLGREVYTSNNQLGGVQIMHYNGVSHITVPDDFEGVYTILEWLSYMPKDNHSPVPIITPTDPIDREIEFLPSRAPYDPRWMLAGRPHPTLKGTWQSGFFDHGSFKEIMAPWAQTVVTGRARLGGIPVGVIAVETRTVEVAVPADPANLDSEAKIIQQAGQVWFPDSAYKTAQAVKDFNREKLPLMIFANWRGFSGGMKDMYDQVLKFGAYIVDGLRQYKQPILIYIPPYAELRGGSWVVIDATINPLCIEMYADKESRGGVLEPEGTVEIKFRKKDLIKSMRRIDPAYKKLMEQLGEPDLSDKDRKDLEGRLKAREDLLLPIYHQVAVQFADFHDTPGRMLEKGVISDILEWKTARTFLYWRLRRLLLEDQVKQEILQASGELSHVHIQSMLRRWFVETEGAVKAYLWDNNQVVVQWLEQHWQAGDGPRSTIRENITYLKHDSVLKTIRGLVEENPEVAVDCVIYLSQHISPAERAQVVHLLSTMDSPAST
UniProt Q9UKV3: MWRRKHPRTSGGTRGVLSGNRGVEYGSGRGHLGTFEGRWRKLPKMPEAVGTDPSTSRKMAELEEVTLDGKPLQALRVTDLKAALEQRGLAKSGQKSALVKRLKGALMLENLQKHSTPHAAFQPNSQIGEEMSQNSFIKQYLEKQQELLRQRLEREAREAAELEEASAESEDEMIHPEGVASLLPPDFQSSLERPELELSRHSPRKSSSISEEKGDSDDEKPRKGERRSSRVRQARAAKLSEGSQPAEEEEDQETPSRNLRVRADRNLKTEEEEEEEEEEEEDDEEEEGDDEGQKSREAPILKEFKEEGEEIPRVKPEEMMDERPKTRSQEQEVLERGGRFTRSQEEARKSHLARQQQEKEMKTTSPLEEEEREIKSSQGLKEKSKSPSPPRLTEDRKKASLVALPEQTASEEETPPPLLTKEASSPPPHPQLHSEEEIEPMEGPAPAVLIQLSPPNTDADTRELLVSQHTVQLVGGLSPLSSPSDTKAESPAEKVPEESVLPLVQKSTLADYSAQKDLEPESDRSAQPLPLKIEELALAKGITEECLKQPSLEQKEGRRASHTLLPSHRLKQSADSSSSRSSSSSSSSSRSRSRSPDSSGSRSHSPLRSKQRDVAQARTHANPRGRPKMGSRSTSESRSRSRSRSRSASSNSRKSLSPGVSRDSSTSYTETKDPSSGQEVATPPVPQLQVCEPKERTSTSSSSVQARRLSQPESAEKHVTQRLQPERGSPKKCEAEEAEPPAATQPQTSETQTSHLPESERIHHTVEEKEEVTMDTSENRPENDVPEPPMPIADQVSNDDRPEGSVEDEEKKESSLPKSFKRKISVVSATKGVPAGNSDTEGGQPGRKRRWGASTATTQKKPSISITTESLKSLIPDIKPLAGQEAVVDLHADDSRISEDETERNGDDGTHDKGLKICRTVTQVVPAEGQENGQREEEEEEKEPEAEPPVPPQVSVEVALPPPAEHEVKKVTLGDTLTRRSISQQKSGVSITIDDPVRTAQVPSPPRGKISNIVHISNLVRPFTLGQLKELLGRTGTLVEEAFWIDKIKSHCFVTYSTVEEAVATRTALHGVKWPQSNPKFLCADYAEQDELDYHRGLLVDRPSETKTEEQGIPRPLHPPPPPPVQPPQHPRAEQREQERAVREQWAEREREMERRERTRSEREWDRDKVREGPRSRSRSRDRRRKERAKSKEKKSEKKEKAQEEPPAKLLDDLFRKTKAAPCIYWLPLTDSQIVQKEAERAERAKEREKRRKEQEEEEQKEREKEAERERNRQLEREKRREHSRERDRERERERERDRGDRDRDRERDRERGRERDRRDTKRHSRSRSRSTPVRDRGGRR

The values that follow come from the supplement of paper PMC10849652.

Common to all, as to test: log2 fold change, soluble protein after heating vs DMSO (PISA); higher = thermal stabilisation; K562 lysate, 10 uM; active = over 0.2 and 3.5 SD of the protein, either way, in both replicates (recomputed)
Compound in experiment [1]: NCC(=O)Nc1ccc(-n2nc(C(F)(F)F)cc2-c2ccc3c(ccc4ccccc43)c2)cc1
A digest of the protocol:
(§1)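 K562 pellets were dounce-homogenised in PBS pH 7.4 with 1 mM MgCl2, and the crude extract at 1 mg/mL protein was treated with 10 μM compound for 30 min. Aliquots were heated for 3 min across 48°C-58°C, pooled, and brought to 0.5% NP-40 at 4°C; soluble protein was the supernatant after 21,000xg for 90 min. Soluble protein was quantified by TMTpro 16plex LC-MS/MS with channel sums equalised, and reported as log2 fold change in thermal stability against DMSO controls, with values from duplicates.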

Compound in another experiment: O=C(CCCCCCC(=O)Nc1ccccc1)NO [vorinostat]
A digest of the protocol: as §1

Compound in another experiment: O=C(O)c1ccc2c(c1)nc(Nc1cccc(Cl)c1)c1ccncc12 [silmitasertib]
A digest of the protocol: as §1

Compound in experiment [2]: O=C1NC(=O)C(c2cnc3ccccn23)=C1c1cn2c3c(cc(F)cc13)CN(C(=O)N1CCCCC1)CC2
In a few lines:
as §1

Compound in a further experiment: c1cn2cc(-c3ccc4cn[nH]c4c3)nc(Nc3ccc(N4CCOCC4)cc3)c2n1 [entospletinib]
In a few lines: as §1

For the target ABCA4 (UniProt P78363), the log2 fold change in experiment [1] was inactive: 0.092; with vorinostat, inactive: 0.054; in the experiment with silmitasertib, inactive: 0.008; in experiment [2], inactive: 0.101; with entospletinib, inactive: -0.009.

Regarding ABI2 (UniProt Q9NYB9), the log2 fold change in experiment [1] is inactive: 0.027; with vorinostat, inactive: -0.024; with silmitasertib, inactive: 0.017; in experiment [2] it was inactive: -0.031; in the experiment with entospletinib, inactive: 0.009.

In the case of ACAA1 (UniProt P09110), the log2 fold change in experiment [1] was inactive: -0.005; in the experiment with vorinostat, active: -0.332; in the experiment with silmitasertib it was inactive: -0.039; in experiment [2], inactive: 0.033; with entospletinib, inactive: 0.038.

In the case of ACAP2 (UniProt Q15057), the log2 fold change in experiment [1] was inactive: 0.007; in the experiment with vorinostat it was inactive: -0.125; with silmitasertib, inactive: 0.025; in experiment [2] it was inactive: -0.008; with entospletinib, inactive: -0.009.

On to ACAT1 (UniProt P24752), for which the log2 fold change in experiment [1] was inactive: 0.011; with vorinostat, active: -1.05; with silmitasertib, inactive: -0.037; in experiment [2] it was inactive: -0.014; with entospletinib, inactive: 0.018.

As for ABHD4 (UniProt Q8TB40), in experiment [1], the log2 fold change is inactive: 0.027.

Consider ACADSB (UniProt P45954), for which the log2 fold change in experiment [1] was inactive: -0.013; in the experiment with vorinostat, inactive: -0.029; in the experiment with silmitasertib, inactive: -0.052; in experiment [2] it was inactive: 0.009; with entospletinib, inactive: -0.034.

In the case of AARS1 (UniProt H3BPK7), the log2 fold change in experiment [1] is inactive: -0.173.

As for ABCF2 isoform 2 (UniProt Q9UG63), the log2 fold change was inactive: 0.103 in experiment [1]; active: -0.326 with vorinostat; inactive: 0.054 in the experiment with silmitasertib; inactive: 0.016 in experiment [2]; inactive: -0.028 with entospletinib.

ABCC4 (UniProt O15439): the log2 fold change in experiment [1] is inactive: 0.003; in the experiment with vorinostat, inactive: 0.034; in the experiment with silmitasertib, inactive: -0.029; in experiment [2] it was inactive: 0.001; with entospletinib it was inactive: 0.009.

As for ABHD14B (UniProt Q96IU4), the log2 fold change in experiment [1] was inactive: -0.139; in the experiment with vorinostat it was inactive: -0.125; in the experiment with silmitasertib it was inactive: -0.011; in experiment [2], inactive: 0.005; in the experiment with entospletinib, inactive: 0.003.

ACBD3 (UniProt Q9H3P7): the log2 fold change in experiment [1] is inactive: 0.035; in the experiment with vorinostat, inactive: -0.077; with silmitasertib, inactive: -0.021; in experiment [2] it was inactive: -0.006; with entospletinib, inactive: 0.014.

Turning to AAMDC (UniProt Q9H7C9), the log2 fold change was inactive: -0.079 in experiment [1]; inactive: 0.089 in the experiment with vorinostat; inactive: -0.053 in the experiment with silmitasertib; inactive: 0.001 in experiment [2]; inactive: -0.074 with entospletinib.

As for ACAA2 (UniProt P42765), the log2 fold change was inactive: -0.014 in experiment [1]; inactive: 0.124 with vorinostat; inactive: -0.005 in the experiment with silmitasertib; inactive: -0.043 in experiment [2]; inactive: 0.024 with entospletinib.

On to ACAT2 (UniProt Q9BWD1), for which the log2 fold change in experiment [1] was inactive: 0.009; in the experiment with vorinostat it was inactive: -0.086; in the experiment with silmitasertib, inactive: -0.006; in experiment [2] it was inactive: 0.04; with entospletinib it was inactive: 0.011.

As to ACOT13 (UniProt Q9NPJ3), the log2 fold change in experiment [1] is inactive: 0; with vorinostat, inactive: 0.139; with silmitasertib, inactive: -0.006; in experiment [2], inactive: -0.006; with entospletinib, inactive: 0.029.

As for AAGAB (UniProt Q6PD74), the log2 fold change in experiment [1] was inactive: 0.014; with vorinostat, inactive: 0.05; with silmitasertib it was inactive: -0.006; in experiment [2] it was inactive: 0.009; with entospletinib, inactive: -0.03.

Regarding AARS2 (UniProt Q5JTZ9), the log2 fold change in experiment [1] was inactive: -0.004; with vorinostat it was active: -0.243; with silmitasertib it was inactive: 0.085; in experiment [2] it was inactive: 0.028; in the experiment with entospletinib, inactive: 0.035.

On to ACAD9 (UniProt Q9H845), for which the log2 fold change was inactive: -0.03 in experiment [1]; inactive: 0.041 with vorinostat; inactive: 0.026 with silmitasertib; inactive: -0.023 in experiment [2]; inactive: -0.005 with entospletinib.

In the case of ACACB (UniProt O00763), the log2 fold change in experiment [1] is inactive: -0.026; with vorinostat, active: -0.438; in the experiment with silmitasertib, inactive: 0.03; in experiment [2] it was inactive: -0.009; in the experiment with entospletinib, inactive: 0.088.

As to ABCE1 (UniProt H0Y990), the log2 fold change in experiment [1] is inactive: 0.137; in the experiment with vorinostat, inactive: 0.277; in the experiment with silmitasertib, inactive: 0.011; in experiment [2], inactive: -0.026; with entospletinib it was inactive: 0.064.

For the target ACCS (UniProt Q96QU6), the log2 fold change was inactive: 0.095 in experiment [1]; inactive: 0.013 in the experiment with vorinostat; inactive: 0.017 in the experiment with silmitasertib; inactive: 0.106 in experiment [2]; inactive: 0.07 in the experiment with entospletinib.

Take ACLY (UniProt P53396): the log2 fold change is inactive: -0.008 in experiment [1]; inactive: -0.029 with vorinostat; inactive: 0.012 in the experiment with silmitasertib; inactive: -0.018 in experiment [2]; inactive: 0.014 with entospletinib.

Consider ACE (UniProt P12821), for which the log2 fold change in experiment [1] was inactive: -0.021; with vorinostat, inactive: 0.002; in the experiment with silmitasertib it was inactive: -0.034.

As for ACIN1 (UniProt E7EQT4), the log2 fold change in experiment [1] was inactive: 0.076; with vorinostat it was inactive: 0.079; with silmitasertib it was inactive: -0.013; in experiment [2], inactive: -0.013; in the experiment with entospletinib, inactive: 0.021.

As to ACIN1 isoform 5 (UniProt Q9UKV3), the log2 fold change in experiment [1] is inactive: 0.035; in the experiment with vorinostat, inactive: 0.007; with silmitasertib, inactive: 0.001; in experiment [2], inactive: -0.012; in the experiment with entospletinib, inactive: -0.003.
